The target in the test is GDF-11 (Homo sapiens (Human)). The test can be described thus: SPR (BiaCore); GDF-11 amine-coupled on CM5 chip, Caronte injected at 200 ug/ml.

Among the data in patent US20060025340A1 are binding values, retold here.

No constants are given. Whether binding was seen depends on the method and setting. A result given as binding can be weak or reduced; the word gives no strength.

B1: Caronte (from Gallus gallus), R&D Systems (ligand)
chain: QPDSQQRKRRPLQHLFYLDRNLLESQSFHELVGENPVGVKETQEEPSFFIAFPQTAGESQKQGEKKMSRFILPNAELYAHQDLRTWAAPKEISPVENFSPSYYSNKRDVEPPYRKDAKKFWDHFMLRKNSASEEVVLPIKTNEMHQETCRTLPFSQSVAHESCEKVIVQNNLCFGKCSSFHVPGPDDRLYTFCSKCLPTKFSMKHLDLNCTSSVPVVKKVMIVEECNCETQKIEDPLLGSRQSDFLGNLPEHN
As to B1, the binding entry was “binds”.
